Experimental data: paper PMC7819943, “Rice protein-binding microarrays: a tool to detect cis-acting elements near promoter regions in rice”
The other results are listed elsewhere or left out.

By UniProt entry, the sequences of proteins in these tests, tags left out.
UniProt Q0JBA9, entry or part of it: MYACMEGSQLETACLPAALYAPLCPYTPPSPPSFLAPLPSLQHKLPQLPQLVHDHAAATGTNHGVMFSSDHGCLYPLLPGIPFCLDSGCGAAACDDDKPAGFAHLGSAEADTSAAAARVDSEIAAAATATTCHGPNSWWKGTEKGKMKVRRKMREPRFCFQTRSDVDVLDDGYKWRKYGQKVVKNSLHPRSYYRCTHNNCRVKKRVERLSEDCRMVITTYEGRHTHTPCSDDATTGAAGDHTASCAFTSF

These sequences were tested against OsWRKY34 (Oryza sativa, UniProt Q0JBA9 1-250) (assay: protein-binding microarray (RPBM); PBS, 2% BSA, 51.3 ng/ul salmon testes DNA, 50 uM zinc acetate, 200 nM TF, 25 C, 1 h; high values mean tight binding). Conditions: protein: recombinant; tags: N-terminal polyhistidine and DsRed monomer fusion (pET32a); label: CyDye5-dUTP incorporated in the synthesized complementary strand; 3' TTTTT single-stranded linker to array surface; dsDNA, one strand shown.
In short: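 Binding signal here means per-feature fluorescence intensity in arbitrary units. The values were read on an Axon 4000B scanner after a custom Agilent array, double-stranded by primer extension with Cy5-dUTP, was incubated with 200 nM protein at 25 °C for 1 h in PBS with 2% BSA, salmon testes DNA and 50 µM zinc acetate, then washed. The proteins were transcription factors with an N-terminal polyhistidine tag and DsRed, expressed in E. coli BL21-CodonPlus and purified on Ni–NTA.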

**Q.** “TTTTATTCCCTAATCTCACTGTTTACAGCGACGCAACTCCCGGAGTCACCTAGTGCAG” was tested. Which binding signal did it give?
**A.** 8450 fluorescence intensity (a.u.)

**Q.** With “AAACATCCGGGCTCCATCTCTAAGGAGCACTTGCACAAACCGGAGTCACCTAGTGCAG” as the sequence, how does the binding signal read?
**A.** 9270 fluorescence intensity (a.u.)

**Q.** How did the binding signal turn out when “CATGTTTTTCTTATTCCTACGTTTTTTCAATCATACGATTCGGAGTCACCTAGTGCAG” was run?
**A.** 8590 fluorescence intensity (a.u.)

**Q.** How did the binding signal turn out when “CTAGTTCTTGCTCTTTTCTCGACGTCATCCGATGGCCATGCGGAGTCACCTAGTGCAG” was run?
**A.** 11600 fluorescence intensity (a.u.)

**Q.** “GTTCCAGTAATCCATGCCAAGTCCATATATTGTTTGTCTTCGGAGTCACCTAGTGCAG” was tested. Which binding signal did it give?
**A.** 10600 fluorescence intensity (a.u.)

**Q.** With “CCATGGCCGCGGTGAGACCCTCTCGCCTCTGCTCGTTTTGCGGAGTCACCTAGTGCAG” as the sequence, how does the binding signal read?
**A.** 8400 fluorescence intensity (a.u.)

**Q.** How did the binding signal turn out when “AGACATTCACTAAAGCTGCATATTAGTGTTTTATTTTCACCGGAGTCACCTAGTGCAG” was run?
**A.** 10000 fluorescence intensity (a.u.)

**Q.** Which binding signal does the source give for “GTGATTTTGCTCCTGTGATTTTTATCGACTCTTTCCGTTTCGGAGTCACCTAGTGCAG” here?
**A.** 10800 fluorescence intensity (a.u.)

**Q.** Which binding signal does the source give for “TCTTGTTGCTTTTGAACATCTGGTACAGATCTGTTAGTAACGGAGTCACCTAGTGCAG” here?
**A.** 9460 fluorescence intensity (a.u.)

**Q.** How did the binding signal turn out when “GGCCTATAAATACCACCAGTCTGGCACCATCCACAACCCACGGAGTCACCTAGTGCAG” was run?
**A.** 10800 fluorescence intensity (a.u.)

**Q.** For “TTCCTTCTTCCTTCTTTTTTTCTCTCTTCTCCTTTTTTTTCGGAGTCACCTAGTGCAG”, which binding signal is on record?
**A.** 10300 fluorescence intensity (a.u.)

**Q.** How did the binding signal turn out when “CACTTCGTTCCTATTTTTAACACTTTCGTTAATTCTCGATCGGAGTCACCTAGTGCAG” was run?
**A.** 8270 fluorescence intensity (a.u.)

**Q.** For “AGTTTTTTTCATTGTAGTTTATTTTTTATACTTTACTTTTCGGAGTCACCTAGTGCAG”, which binding signal is on record?
**A.** 10800 fluorescence intensity (a.u.)

**Q.** For “CTTATGTTGACATGTTCATTCACTAGTTTTAGTTACTAACCGGAGTCACCTAGTGCAG”, which binding signal is on record?
**A.** 10000 fluorescence intensity (a.u.)

**Q.** “GGGACACGCACCTCTGTCTAGCACTGGGCACATCTATGCTCGGAGTCACCTAGTGCAG” was tested. Which binding signal did it give?
**A.** 9930 fluorescence intensity (a.u.)

**Q.** How did the binding signal turn out when “GGGTTAGGGAGGGGCCTGGTGGTGGTCGGGGCTCTGACGCCGGAGTCACCTAGTGCAG” was run?
**A.** 13100 fluorescence intensity (a.u.)

**Q.** With “GCATCCACCTTTGAGCTCTCCACCGTTGTTTGCATACTCCCGGAGTCACCTAGTGCAG” as the sequence, how does the binding signal read?
**A.** 13300 fluorescence intensity (a.u.)

**Q.** “TTTGTTTTCATACCATGGATGACTGTTGCTGTGCCAAAATCGGAGTCACCTAGTGCAG” was tested. Which binding signal did it give?
**A.** 8460 fluorescence intensity (a.u.)

**Q.** For “CATTTTGTTCATTCGGGTTTGATTGTGTCATAGTTCTATACGGAGTCACCTAGTGCAG”, which binding signal is on record?
**A.** 16000 fluorescence intensity (a.u.)

**Q.** How did the binding signal turn out when “ATGATGTGTCGACGTTATCTCTTTAAAATTGATTTGTCATCGGAGTCACCTAGTGCAG” was run?
**A.** 12500 fluorescence intensity (a.u.)

**Q.** Which binding signal does the source give for “TGAATTTTTTTTGACACACGTGGTATGTGTATATGTGTTTCGGAGTCACCTAGTGCAG” here?
**A.** 9400 fluorescence intensity (a.u.)

**Q.** With “CCTATATTGCAATTTTTGTATTTTTTTCCCTGCAGAAGTACGGAGTCACCTAGTGCAG” as the sequence, how does the binding signal read?
**A.** 9250 fluorescence intensity (a.u.)

**Q.** With “CTCTCTTCTTTCATATTCTCGATATATGTTTATAGCTGGCCGGAGTCACCTAGTGCAG” as the sequence, how does the binding signal read?
**A.** 8250 fluorescence intensity (a.u.)

**Q.** Which binding signal does the source give for “CGTCGCCGTCAGCCGCCCGCCGCACTCGTTTCCAGCGATCCGGAGTCACCTAGTGCAG” here?
**A.** 11500 fluorescence intensity (a.u.)

**Q.** “GTGTGTGCAGCAGAGTTTGCAATCTTACATGGCTTCTAACCGGAGTCACCTAGTGCAG” was tested. Which binding signal did it give?
**A.** 8690 fluorescence intensity (a.u.)

**Q.** For “CACCGGCCGACTGCCACTCGCCACCACACGACCACCAGCCCGGAGTCACCTAGTGCAG”, which binding signal is on record?
**A.** 10000 fluorescence intensity (a.u.)

**Q.** How did the binding signal turn out when “TCTTTTTCCTATGTATCATTGCTTCATTTTCATATGCAGTCGGAGTCACCTAGTGCAG” was run?
**A.** 8970 fluorescence intensity (a.u.)

**Q.** How did the binding signal turn out when “TTCAACAAGCGGCAGATTCGATTCACATCCATATATATTACGGAGTCACCTAGTGCAG” was run?
**A.** 9150 fluorescence intensity (a.u.)

**Q.** “CATTCGAAGCTGGTTCTGTTCCTTACTTCTTCCTCTTAGTCGGAGTCACCTAGTGCAG” was tested. Which binding signal did it give?
**A.** 13000 fluorescence intensity (a.u.)

**Q.** How did the binding signal turn out when “ACTAAACTCTGCCTTCATCATATTCCCAGCTGGTAACTCTCGGAGTCACCTAGTGCAG” was run?
**A.** 10300 fluorescence intensity (a.u.)

**Q.** Which binding signal does the source give for “CGCCCACTCCGCTGACCCTTTTGTTCCTCGAACCCACCCTCGGAGTCACCTAGTGCAG” here?
**A.** 10300 fluorescence intensity (a.u.)

**Q.** Which binding signal does the source give for “TCCGACCTGTCTCGCTTTCCTCGCCGGCGGCCGCTCCCTTCGGAGTCACCTAGTGCAG” here?
**A.** 8480 fluorescence intensity (a.u.)

**Q.** Which binding signal does the source give for “CCCTCTGCTCATGCCCTGCCCCACATGTCAGCCTCACGCCCGGAGTCACCTAGTGCAG” here?
**A.** 9360 fluorescence intensity (a.u.)

**Q.** How did the binding signal turn out when “CCGGTTCGACAGGCCTCGCGGCGCCGGGTGGTGGGCCCTGCGGAGTCACCTAGTGCAG” was run?
**A.** 8180 fluorescence intensity (a.u.)

**Q.** For “GTCGGTGGAGCGGCCCTTTTTATTTCTGTGGGAGGAGGGTCGGAGTCACCTAGTGCAG”, which binding signal is on record?
**A.** 9300 fluorescence intensity (a.u.)

**Q.** Which binding signal does the source give for “TCGAGTCGTCGTCTTCGTCTCCGTTCCGTTGCGCCGCCTCCGGAGTCACCTAGTGCAG” here?
**A.** 9560 fluorescence intensity (a.u.)

**Q.** For “AACGCTTAGACATTTCAACGTTCTCCTCCACAGCAACAGCCGGAGTCACCTAGTGCAG”, which binding signal is on record?
**A.** 9390 fluorescence intensity (a.u.)

**Q.** How did the binding signal turn out when “ATACCTGATCCTACTTGTCATACACATATTTATCTTATAGCGGAGTCACCTAGTGCAG” was run?
**A.** 9880 fluorescence intensity (a.u.)

**Q.** With “AGTCCACACCCCACCACCACTCCACCACCATCCCAACCAACGGAGTCACCTAGTGCAG” as the sequence, how does the binding signal read?
**A.** 9670 fluorescence intensity (a.u.)

**Q.** Which binding signal does the source give for “GAGTAGTAGTGGTGGTGGTGGTATTAGTAGCAGTGAGATGCGGAGTCACCTAGTGCAG” here?
**A.** 12400 fluorescence intensity (a.u.)

**Q.** For “AACTAACACACTCTTTCATCGTCCCTTGCTGTCAGCAGACCGGAGTCACCTAGTGCAG”, which binding signal is on record?
**A.** 8840 fluorescence intensity (a.u.)

**Q.** Which binding signal does the source give for “AACATCGGCTCGTAGCTGTTTTTGGTAGTTGGCACACGTTCGGAGTCACCTAGTGCAG” here?
**A.** 8700 fluorescence intensity (a.u.)
